According to publication PMC12501038:
These are yes or no findings as the source states them, for the method shown. Binding seen in cells or lysates may run through a third protein. Some binding calls cover weakened binding; strength is not graded here.

The chains behind the UniProt entries cited, without tags or fusion partners. Where a name states a change or a piece, a line headed by the entry shows the natural chain unless it says otherwise. A line that says so, or that is headed by a name, gives the form on record, which may keep a tag or linker. Residues count along the entry.
UniProt Q570Y9: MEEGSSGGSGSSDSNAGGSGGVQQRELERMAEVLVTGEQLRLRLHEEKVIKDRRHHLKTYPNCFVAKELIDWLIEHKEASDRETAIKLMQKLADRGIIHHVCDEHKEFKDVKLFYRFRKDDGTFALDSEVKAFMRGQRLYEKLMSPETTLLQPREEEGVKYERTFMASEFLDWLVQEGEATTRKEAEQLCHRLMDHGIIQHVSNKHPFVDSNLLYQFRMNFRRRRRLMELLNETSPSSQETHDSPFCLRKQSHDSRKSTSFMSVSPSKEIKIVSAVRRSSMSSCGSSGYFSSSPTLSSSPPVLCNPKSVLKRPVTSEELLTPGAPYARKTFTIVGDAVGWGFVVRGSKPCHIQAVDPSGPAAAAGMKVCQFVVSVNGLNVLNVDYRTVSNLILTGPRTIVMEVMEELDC
UniProt Q8TB45: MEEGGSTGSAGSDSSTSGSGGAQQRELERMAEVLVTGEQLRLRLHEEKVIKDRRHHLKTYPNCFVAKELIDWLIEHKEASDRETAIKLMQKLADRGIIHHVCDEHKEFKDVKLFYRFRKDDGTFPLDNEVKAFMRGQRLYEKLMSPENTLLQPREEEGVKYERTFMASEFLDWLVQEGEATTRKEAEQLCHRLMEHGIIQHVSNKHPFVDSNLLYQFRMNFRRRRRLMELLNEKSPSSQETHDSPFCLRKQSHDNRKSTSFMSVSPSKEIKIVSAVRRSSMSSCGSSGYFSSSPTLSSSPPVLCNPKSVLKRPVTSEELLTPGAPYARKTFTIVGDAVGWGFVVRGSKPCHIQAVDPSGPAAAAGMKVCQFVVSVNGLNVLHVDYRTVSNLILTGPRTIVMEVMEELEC
FLAG-tagged PDZ domain of DEPTOR: residues 330-407 of Q8TB45

Legend:
[1] = molecular target: HUWE1 fragment F1 (1-1000) (UniProt Q7Z6Z7); test: co-IP; HEK293 cells transfected with HUWE1 truncation constructs for 48 h, IP with anti-HA Ab, IB
[2] = molecular target: HUWE1 fragment F3 (1394-1733) (UniProt Q7Z6Z7); test: as above
[3] = molecular target: HUWE1 fragment F5 (1000-2000) (UniProt Q7Z6Z7); test: as above
[4] = molecular target: DEPTOR (endogenous, mouse lymphoma) (mouse (endogenous in lymphomas)) (UniProt Q570Y9); test: co-IP; lymphomas from Deptor+/+;Pten+/- mice lysed, IP with anti-DEPTOR Ab (normal IgG as control), IB
[5] = molecular target: FLAG-DEPTOR (UniProt Q8TB45); test: co-IP; HEK293 cells transfected with indicated plasmids for 48 h, IP with FLAG beads, IB; in some panels with co-transfected HA-DEPTOR or after lentiviral shDEPTOR
[6] = molecular target: FLAG-EGFR (UniProt P00533); test: pull-down; in vitro binding assay: FLAG-EGFR on FLAG beads (from HEK293 shDEPTOR cells) incubated with lysates of HEK293 shDEPTOR cells expressing HA-HUWE1, without or with purified HA-DEPTOR, 4.5 h at 4 °C, washed four times with lysis buffer, IB; only the target purified
[7] = molecular target: FLAG-tagged PDZ domain of DEPTOR (UniProt Q8TB45); test: co-IP; HEK293 cells transfected with indicated plasmids for 48 h, IP with FLAG beads, IB; in some panels with co-transfected HA-DEPTOR or after lentiviral shDEPTOR
[8] = molecular target: FLAG-EGFR (UniProt P00533); test: as above

DEPTOR (in HEK293 cells, Fig. 4D) (from UniProt Q8TB45 1-409)
binding [1]: binds | binding [2]: binds | binding [3]: binds

EGFR (endogenous, mouse lymphoma) (from UniProt Q01279 25-1210) (receptor)
binding [4]: binds

EGFR (in HEK293 cells, Fig. 4A) (from UniProt P00533 25-1210) (receptor)
binding [5]: binds

HA-HUWE1 (from UniProt Q7Z6Z7 1-4374) (enzyme)
binding [6]: binds

HUWE1 (endogenous, HEK293) (from UniProt Q7Z6Z7 1-4374) (enzyme)
binding [7]: binds | binding [5]: binds | binding [8]: binds
